The values below come from PubChem BioAssay AID2685 (National Center for Advancing Translational Sciences (NCATS), 2010).

The other results are listed elsewhere or left out. The main result of the screen is listed elsewhere. These columns were measured beside it and carry no call. Compounds called inactive in the main read-out are mostly missing here. Potencies come from curve fits of mixed quality, noted in brackets.

This test can be described thus: qHTS Assay for Lipid Storage Modulators in Drosophila S3 Cells.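 As to cell number change: cells counted by Cell Tracker Red CMTPX staining in the red channel.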 The settings on record: BODIPY lipid droplet fluorescence, 18-24 h; for cell number change: measured here: cell count max response, cells fed with added oleic acid. In outline:
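Drosophila S3 cells got compounds at several concentrations plus oleic acid (400 uM solution). Laser-scanning cytometry with 488 nm excitation read lipid droplets at 500-530 nm and cells at 575-640 nm. Percent activity was relative to 20 uM Triacsin C.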
In general terms: qHTS replaces the single test concentration by a dilution series.

[1] abbreviates: measured here: lipid fluorescence (Fed channel) AC50, cells fed with added oleic acid.
Where [2] appears, read: measured here: cell number channel AC50, cells fed with added oleic acid.

Take `Cc1cc(C)n(/N=C/c2ccco2)c(=O)c1C#N`: the cell number change is -12.7%. In addition, under setting [1], the AC50 – broadly, the midpoint of the concentration-response curve, whichever way the signal moves – was 0.184 µM [falling, full curve, poor fit]. Consider `Cc1cccc(NC(=O)c2cnccn2)c1`, for which the cell number change was -10.2%. The AC50 under setting [1] was 29.1 µM [rising, single point]. Consider `Cc1ccc(S(=O)(=O)Nc2cccc(/C=C/C(=O)O)c2)cc1`, for which the cell number change is 11.6%. Further, under setting [1], the AC50 is 4.11 µM [rising, single point]. As to `COc1ccc(CN(C)C(=O)c2ccccc2OCc2c(C)noc2C)c(OC)c1`, the cell number change is -25.6%. Besides, the half-maximal activity concentration (AC50) under setting [1] was 5.17 µM [falling, partial curve].

Turning to `CCOC(=O)c1c(-c2cccc([N+](=O)[O-])c2)csc1N`, the cell number change was -15.3%. The AC50 under setting [2] is 3.66 µM [falling, partial curve, poor fit]. Further, the half-maximal activity concentration (AC50) under setting [1] is 2.06 µM [falling, partial curve, poor fit]. For `CCOC(=O)c1cc(CC)sc1/N=C/C1=C(O)CCCC1=O`, the cell number change worked out at 45.2%. The concentration at half-maximal activity (AC50) under setting [2] is 29.1 µM [rising, single point]. In the case of `COc1ccc(C(=O)c2sc(Nc3ccc(NC(C)=O)cc3)nc2C)cc1`, the cell number change was -8.03%. Also, the AC50 under setting [1] is 20.6 µM [falling, single point]. Regarding `O=S(=O)(c1cccs1)N1CN(Cc2ccc(Cl)cc2)c2nc3ccccc3nc21`, the cell number change stood at 17.9%. For `COc1ccc(C)cc1NC(=O)C1CCN(S(=O)(=O)c2cccc3nonc23)CC1`, the AC50 under setting [1] was 6.51 µM [falling, single point]. Consider `O=C(NNc1nc2cc3c(cc2s1)OCO3)c1ccc(F)cc1`, for which the cell number change came out at 1.71%. On to `CN(C)C(=O)CN(c1ccc2c(c1)OCO2)S(C)(=O)=O`, for which the cell number change is -28.7%. The half-maximal activity concentration (AC50) under setting [1] is 0.184 µM [falling, full curve, poor fit]. For the compound `CC1(C)C(=O)Nc2ccccc2N1C(=O)COC(=O)CSc1ccc(F)cc1`, the cell number change worked out at 29.3%. Moreover, the AC50 under setting [1] is 32.6 µM [rising, partial curve]. For the compound `COc1ccc(N(CC(=O)NC2CCCCC2)C(=O)CCC(=O)Nc2nc(C)cs2)cc1`, the cell number change was 24.8%. Also, under setting [1], the concentration at half-maximal activity (AC50) is 9.2 µM [rising, partial curve]. As for `Cc1ccc(NC2=CC(=O)CC(C)(C)C2)cc1Cl`, the cell number change is -11.3%. Besides, under setting [2], the AC50 was 1.84 µM [falling, partial curve]. Moreover, the concentration at half-maximal activity (AC50) under setting [1] was 0.00411 µM [falling, full curve, poor fit]. In the case of `O=C(NC(NNc1ccc([N+](=O)[O-])cc1)(C(F)(F)F)C(F)(F)F)c1ccc(Cl)cc1`, the cell number change was -38.4%. The AC50 under setting [2] was 10.3 µM [falling, partial curve]. Besides, under setting [1], the half-maximal activity concentration (AC50) was 10.3 µM [rising, partial curve]. For the compound `CCOc1ccc(NC(=S)N2CCC(NC(=O)c3ccccc3C)CC2)cc1`, the cell number change worked out at 21%. For the compound `Cc1ccc(N2CCN(/N=C/c3c(C)nn(-c4ccccc4)c3Cl)CC2)cc1`, the cell number change was -12.8%. Also, the AC50 under setting [1] was 16.4 µM [falling, single point]. As for `Cc1cc(C)n(-c2nc(C(F)(F)F)nc3ccccc23)n1`, the cell number change is -11.4%.

On to `CCOC(=O)Cn1c(-c2nonc2NC(=O)c2ccccc2F)nc2ccccc21`, for which the AC50 was 6.51 µM [falling, single point] under setting [2] and 18.4 µM [falling, partial curve] under setting [1]. Take `O=C1N(S(=O)(=O)c2ccccc2F)C(=O)C2(CCCC2)N1S(=O)(=O)c1ccccc1F`: the cell number change is -31.8%. The half-maximal activity concentration (AC50) under setting [2] is 23.1 µM [falling, single point]. Besides, the AC50 under setting [1] was 11.6 µM [falling, partial curve, poor fit]. In the case of `O=C(O)Cn1nc(-c2ccccc2)oc1=O`, the cell number change is -18.9%. The AC50 under setting [1] was 29.1 µM [falling, partial curve, poor fit]. Consider `CCCC(C)NC(=O)c1ccc2[nH]c3c(c2c1)CC(C)CC3` (centres undefined), for which, under setting [2], the AC50 is 0.0731 µM [falling, full curve, poor fit]. With `CCCCc1cc(=O)oc2cc(C)cc(OCC(=O)Nc3ccccn3)c12`, the cell number change came out at 13%. For the same compound, under setting [1], the AC50 is 1.84 µM [falling, partial curve]. Turning to `CCCCCCNC(=O)CCNC(=O)c1cc(OC)c(OC)c(OC)c1`, the cell number change is -21.5%. For the same compound, under setting [2], the AC50 was 0.461 µM [falling, full curve, poor fit]. Also, the AC50 under setting [1] is 2.31 µM [falling, full curve]. `CN1C2=NCCN2C(=O)c2cc(Cl)ccc21`: the cell number change is -49.7%. Moreover, the half-maximal activity concentration (AC50) under setting [2] was 5.17 µM [falling, full curve]. Under setting [1], the AC50 is 6.51 µM [falling, partial curve]. Regarding `COc1cc(C(=O)N(C)Cc2cccc(OC)c2OC)ccc1OCC(=O)Nc1cccc(C(F)(F)F)c1`, the cell number change is -99.2%. Moreover, the AC50 under setting [2] was 29.1 µM [falling, single point]. Moreover, the AC50 under setting [1] is 2.59 µM [rising, single point]. `O=C(OCC(=O)N1CCc2ccccc21)c1ccccc1[N+](=O)[O-]`: the cell number change is 3.87%. Under setting [1], the concentration at half-maximal activity (AC50) is 4.11 µM [rising, single point]. Regarding `Cc1cc(C)c2oc(C(=O)Nc3ccc(S(=O)(=O)Nc4nccs4)cc3)cc(=O)c2c1`, the cell number change was found to be 0.436%.

As to `CC(C)CN(C(=O)COC(=O)CSc1ccccc1F)c1c(N)n(Cc2ccccc2)c(=O)[nH]c1=O`, the cell number change is -8.73%. Further, the half-maximal activity concentration (AC50) under setting [2] was 0.206 µM [falling, full curve, poor fit]. Further, under setting [1], the AC50 is 0.411 µM [falling, partial curve]. For `O=C(O)C(=O)/C(=C\c1ccc(Cl)cc1)c1ccc2ccccc2n1`, the cell number change amounted to 77.5%. For the same compound, the AC50 under setting [2] was 13 µM [rising, partial curve, poor fit]. Regarding `C=CCN1C(=O)CN=C1Nc1cc(C)cc(C)c1`, the cell number change was found to be 0.78%. Under setting [1], the concentration at half-maximal activity (AC50) was 32.6 µM [rising, single point]. As for `CCOc1ccc(C(=O)NC(=S)NCc2cccnc2)cc1`, the cell number change was -16.7%. Under setting [2], the concentration at half-maximal activity (AC50) is 3.26 µM [falling, single point]. Also, under setting [1], the AC50 is 2.59 µM [rising, full curve]. `CN(CC(=O)Nc1ncn[nH]1)S(=O)(=O)c1ccc(Br)cc1`: the cell number change is 9.68%. Moreover, the concentration at half-maximal activity (AC50) under setting [1] was 25.9 µM [rising, single point].

For `COC(=O)c1ccccc1NC(=O)COc1ccc2c(c1)OCO2`, the cell number change is -9.39%. Further, under setting [1], the AC50 was 16.4 µM [rising, single point]. For the compound `CC1CCc2nn(CC(=O)NCCCN3CCOCC3)cc2C1` (centres undefined), the cell number change was -48.3%. Further, under setting [2], the AC50 was 2.31 µM [falling, partial curve, poor fit]. For the same compound, the concentration at half-maximal activity (AC50) under setting [1] is 5.17 µM [falling, partial curve, poor fit]. Take `CC1(C)Cc2[nH]c(=O)c(C#N)cc2CS1`: the cell number change is -5.53%. The AC50 under setting [1] was 0.00517 µM [falling, full curve, poor fit].

For the compound `CCC(C)(C)NC(=O)CN(CC1CCCO1)C(=O)CNS(=O)(=O)c1ccccc1` (centres undefined), the cell number change is -20.5%. For the same compound, the concentration at half-maximal activity (AC50) under setting [1] is 5.17 µM [falling, single point]. With `Cc1nn(-c2ccc(C(=O)N3CCN(S(=O)(=O)c4ccccc4C(F)(F)F)CC3)cc2)c(C)c1Cl`, the cell number change is -5.97%.

For the compound `CCn1c(SCC(=O)NC2CCCCC2)nnc1C(C)NC(=O)c1ccccc1F` (centres undefined), the cell number change turned out to be 12.6%. For `COc1cc(/C=C2\SC(=O)N(CCN)C2=O)ccc1OS(=O)(=O)c1cc(C)ccc1C`, the cell number change was -29.7%. Under setting [1], the AC50 is 1.46 µM [falling, partial curve]. Take `CCOc1ccc(CCNC(=O)c2cccs2)cc1OCC`: the cell number change is -34.8%. Also, the concentration at half-maximal activity (AC50) under setting [2] is 29.1 µM [falling, single point]. With `Cc1ccccc1OCCNc1cc(N2CC(C)NC(C)C2)ccc1[N+](=O)[O-]` (centres undefined), the cell number change was 4.08%. Moreover, the concentration at half-maximal activity (AC50) under setting [1] is 0.82 µM [rising, partial curve, poor fit]. Regarding `NC(=O)c1ccsc1NC(=O)COC(=O)c1cnccn1`, the cell number change was -51.8%. For the same compound, the half-maximal activity concentration (AC50) under setting [2] was 18.4 µM [falling, single point]. Moreover, under setting [1], the half-maximal activity concentration (AC50) was 23.1 µM [falling, single point].

Consider `CCCCn1c(N)c(N(CC)C(=O)c2cc(S(=O)(=O)N3CCCCCC3)ccc2OC)c(=O)[nH]c1=O`, for which the cell number change turned out to be 1.5%.

Regarding `CCOC(=O)Cn1c2c(c(=N)c3c1CCC3)CCCC2`, the cell number change is -13.4%. Further, the half-maximal activity concentration (AC50) under setting [2] is 0.731 µM [falling, full curve, poor fit]. As to `COCCNc1nc(SCC(=O)N2CCN(c3ccccc3OC)CC2)nc2ccccc12`, the cell number change is -40.3%. Moreover, the half-maximal activity concentration (AC50) under setting [2] is 29.1 µM [falling, single point]. The AC50 under setting [1] is 1.46 µM [falling, full curve]. Turning to `O=C(CCCN1C(=O)/C(=C/c2cccs2)SC1=S)Nc1ccc(C(=O)O)cc1`, the cell number change was found to be 26.9%. Consider `CCC(=O)N1c2ccc(S(=O)(=O)NCCc3ccccc3)cc2CC1C` (centres undefined), for which the cell number change was -4.61%. Further, under setting [1], the AC50 was 16.4 µM [rising, partial curve]. For the compound `Cc1ccccc1C(=O)NC(NC(=S)Nc1ccc(S(N)(=O)=O)cc1)C(Cl)(Cl)Cl` (centres undefined), the cell number change came to 13%. `CCOC(=O)c1c(NC(=O)CSc2nc3cc(Cl)ccc3s2)sc(C(C)=O)c1C`: the cell number change worked out at 125%. Also, the concentration at half-maximal activity (AC50) under setting [2] was 29.1 µM [rising, partial curve, poor fit]. `O=C(/C=C1\NC2(CCCC2)Cc2ccccc21)N1CCOCC1`: the AC50 under setting [1] is 3.26 µM [falling, partial curve, poor fit]. Take `CC(Oc1ccc(Cl)cc1Cl)c1ccn[nH]1` (centres undefined): the cell number change was -14%. Besides, the AC50 under setting [2] was 4.11 µM [falling, single point].

Consider `COc1ccccc1NC(=O)CNC(=O)c1ccccc1C`, for which the cell number change turned out to be 50.8%. Besides, the half-maximal activity concentration (AC50) under setting [2] was 13 µM [rising, partial curve].

`COc1ccc(S(=O)(=O)N(CC(=O)NC(C)C)Cc2ccccc2)cc1`: the cell number change was 53.8%. For the same compound, the AC50 under setting [2] is 11.6 µM [rising, partial curve]. For the same compound, the concentration at half-maximal activity (AC50) under setting [1] is 1.46 µM [rising, partial curve, poor fit]. Regarding `Cc1ccc(-n2ncc3c2CC(C)(C)CC3NC(=O)c2ccccn2)cc1` (centres undefined), the cell number change is -13.7%. As to `CCCn1c(N)c(C(=O)CSc2nc(C)nc3sc(C)c(C)c23)c(=O)[nH]c1=O`, under setting [1], the AC50 was 0.411 µM [rising, partial curve].

For the compound `O=C(CN1C(=O)NC2(CCOc3ccccc32)C1=O)NCc1ccc(F)cc1` (centres undefined), the cell number change was -14.5%. Further, the half-maximal activity concentration (AC50) under setting [1] is 2.59 µM [rising, partial curve, poor fit]. As for `Cc1ccc(S(=O)(=O)c2nc(-c3ccccc3)oc2NCCCN2CCOCC2)cc1`, the AC50 under setting [2] is 2.91 µM [rising, single point] and the half-maximal activity concentration (AC50) under setting [1] is 6.51 µM [rising, single point].
